Source: PubChem BioAssay AID1159506 (NCATS, 2015).

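Luminescence from an EWS-FLI1 target-promoter (NR0B1) reporter, set against a CMV-promoter reporter, two days after silencing single genes in TC32 Ewing sarcoma cells.
Each siRNA was applied at 20 nM.
A z-score of the log NR0B1-over-CMV signal, less the median of siRNAs with the same seed; more negative means a stronger specific loss of the NR0B1 reporter.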

The strongest results of the screen are mostly left out here.
Sequences are the guide (antisense) strand, without overhang.

siRNA,gene,seed-corrected z-score
UUCGCUUUCUCUUUCGGGC,POU5F1,-1.642
UUCCUUUAUUCGCUUUUCC,MYB,-0.3897
UUCCUUUUUCCGAUACUCA,GABARAPL1,-0.4154
UUCUCUUAUUCUUUUGCCG,RRP8,0.4972
AUUGCUAGUACAUUCCUCG,XIRP2,-0.975
UGUUUAACAGCUUCCAUUG,PSMA1,0.07308
AAGAGUUCAGUUGUCAGAG,ABHD15,-0.06501
AAAGUUGCCUGCAAAAUUG,AIMP1,-0.7858
UCUUGGAUACAGCUGCAUC,PML,-0.8112
UGUCUGAUUAGGACUUGUC,TATDN3,-1.071
AUACUGACCAGUUAAUACC,SLC17A4,-0.08302
UUAGGCAUGAGCGAGCGAG,CCDC88A,-1.301
UUAAAGUUCAGCCCUUACU,HIST1H2AM,-1.097
UUGUGGAUGUCUGAUGGGC,LOC645645,0.1882
UUCUUUAGAACAAGUGAGC,OR14K1,0.6489
UCAUUGUGAGUUGAUCUGC,MXD1,0.1203
UUUCUCAGCGUAAUGACCC,RPL3L,0.1238
UGAGUUGCUUGAGCAUUCG,CDKL1,0.08058
AUGAGGCUCACAAAUUUGC,SLC35B4,-0.05604
AAGGUGGUGAGUCCCAAGC,OTOP2,-0.64
UUAGUUCCAAUGUCUAAAU,PCDHB2,-0.2271
UUAUAGGCCGUGAAUAUGU,AJAP1,1.139
UUAGUUUUAAGAGGGUUGU,IGF2,0.6911
AACCAGUUAACCACUUGUC,AADAT,-0.2882
UACAUGAAUGUGCAGAUGA,HINT2,-0.4885
UCCACGACUAGUUAAGGUC,EIF4G3,-0.2544
UUCUCGGUCUUUCUCCUGC,POLR3D,-0.08934
UUGGGUUACAGCGAAGAUC,ITGB6,0.2147
UAGACAUUAAUCCAGCACU,COL18A1-AS1,-0.9534
UUAGUUCGCAGAAACGAAG,CASP9,-0.2504
UUUGCUCACACCAUUUGCU,ELOVL4,-0.3419
GCUCGGAUGAAUUCUCGGC,RLN3,0.9321
UGAUGGACUCGUAGUAUGU,CERS4,0.7827
UAUGCUUGUAUUGGUAAGG,MUC19,-0.02428
UUCUCAAUAUGCUUUAUUC,KRT6B,0.4919
AUUCUCAAGAUAGAACUCG,TEX13A,-0.2265
AAGUCGGUCAGUUUGAUGU,RPS6KB2,-0.005578
UUUGGUGAGCGAAACCUCG,USP35,-0.2145
ACCAUAUGGACUUUCAUCC,HSD17B14,0.104
AUAGAGGCUGGUGUCAUCC,DUSP27,0.3991
UUAACUCUAACCAUUAAUG,PCDHGB6,-0.237
UCUUUCGAUAACUUCAUCC,ALDH1A2,0.1001
UUUGGGUCAAAGGUCCAGC,LINC01587,-0.4612
AAUAGUUCAAGUGAUCAGG,HACE1,-0.2787
UAGGGAUCGAGAGAGGUGG,RBM4,-1.419
ACAGCAAUCGGUCCAGUUC,PLEKHM2,0.04902
UUUCACAGCAUUCAAAUGG,LOC440982,-1.507
ACCUUGUUUAAGACCUCCC,ECI1,0.5772
AUUAGGGAAGCAAUAGUCC,HHIPL2,-0.2981
UUAGUGCUUUCACAGUUGC,MAP2K4,-0.26
UCCAGUACCAGAAGAACUG,TM4SF18,1.065
UCUCAUUUUAUCACAGGUC,BAMBI,0.2666
UUCGUUACAUUGAAACGGC,ZNF836,-0.1028
UCCCGAAGAAAAACACCUG,HDGFL1,-0.2473
UGUAAGUCGAGUGAGAACC,RBFA,-0.2751
UGAUGUUGAAGGGAGGUCC,DYSF,1.186
UCAUACUCCAUGUCAUUGC,KIF19,1.232
UAGGGUUAAACUGUUCCCA,PLD6,0.2716
UACCCUUGCUUGAAGAUCC,ZNF462,0.0003648
UUACGGGUCACUCUAUUUG,MT1G,0.5928
AAAUAGUCGCAGAAGGUCG,PPP1CA,-0.2789
AAGAGUAUCAGCAUGACGG,SOAT2,-0.2336
UCUCACUAAAGGUUAUUCG,CATSPER4,0.03993
UACUUCAACAUAUCCGUGG,RMND1,1.221
UUACCGGAUGCUAUCAAGG,BHMT,-0.6573
AUAGGUAUCCUCUGGGUUC,REM2,0.5056
UCACUAUUUACACCUGAUC,DEK,-0.9476
UCUUGUUCCAUUUCGUCAC,EIF2AK3,0.1675

Some entries from above, unchanged:

* UUCCUUUUUCCGAUACUCA against GABARAPL1 : seed-corrected z-score -0.4154
* UUAGUGCUUUCACAGUUGC against MAP2K4 : seed-corrected z-score -0.26
* UUCUCGGUCUUUCUCCUGC against POLR3D : seed-corrected z-score -0.08934
* UUUCACAGCAUUCAAAUGG against LOC440982 : seed-corrected z-score -1.507
* UUCUUUAGAACAAGUGAGC against OR14K1 : seed-corrected z-score 0.6489
* UUAGUUCCAAUGUCUAAAU against PCDHB2 : seed-corrected z-score -0.2271